Values quoted from earlier work, collected in PMC9187652, “Investigating the ligand agonism and antagonism at the D2long receptor by dynamic mass redistribution” (Scientific Reports, 2022).

Molecular target: D2long receptors
Conditions: cited from earlier work

Compound: O=C1CCc2ccc(OCCCCN3CCN(c4cccc(Cl)c4Cl)CC3)cc2N1 [Aripiprazole, aripiprazole]
- pEC50 (DMR), obtained by conversion of the reported EC50 value: 6.23
